Experimental data from publication PMC5415356.
Substitutions are numbered along the chain they refer to. These are yes or no findings as the source states them, for the method shown. In cells and extracts the contact can be indirect. Some binding calls cover weakened binding; strength is not graded here. Tags and fused reporters may be left off the sequences shown.

Sequences of proteins named here, by UniProt entry; tags and fusion partners are left off.
UniProt P46937: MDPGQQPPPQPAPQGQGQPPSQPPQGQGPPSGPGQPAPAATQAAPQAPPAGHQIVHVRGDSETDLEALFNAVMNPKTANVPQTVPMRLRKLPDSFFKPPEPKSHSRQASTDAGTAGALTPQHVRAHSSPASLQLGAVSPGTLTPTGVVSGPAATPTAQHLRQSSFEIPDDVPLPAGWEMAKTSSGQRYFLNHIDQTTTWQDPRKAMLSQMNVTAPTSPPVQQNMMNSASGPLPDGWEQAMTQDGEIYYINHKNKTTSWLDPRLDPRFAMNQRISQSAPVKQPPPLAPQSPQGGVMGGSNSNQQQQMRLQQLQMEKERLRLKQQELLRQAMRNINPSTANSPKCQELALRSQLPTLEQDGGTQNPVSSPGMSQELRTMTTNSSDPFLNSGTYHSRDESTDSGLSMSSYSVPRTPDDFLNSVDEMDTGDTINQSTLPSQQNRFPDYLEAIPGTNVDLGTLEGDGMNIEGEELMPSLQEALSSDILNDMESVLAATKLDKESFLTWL

Assays:
[1] = target: T1, HA-Amot-p130 (mouse (by the paper's numbering: Ser176 in mouse, Ser175 in human)) (UniProt Q8VHG2); assay: co-IP; HEK293-shAmot cells co-transfected with an Amot-p130 allele (WT, S176A, S176E or PY motif mutants) and tagged partners; total RIPA lysate, IP with tag or protein antibodies overnight, immunoblot
T1 sequence: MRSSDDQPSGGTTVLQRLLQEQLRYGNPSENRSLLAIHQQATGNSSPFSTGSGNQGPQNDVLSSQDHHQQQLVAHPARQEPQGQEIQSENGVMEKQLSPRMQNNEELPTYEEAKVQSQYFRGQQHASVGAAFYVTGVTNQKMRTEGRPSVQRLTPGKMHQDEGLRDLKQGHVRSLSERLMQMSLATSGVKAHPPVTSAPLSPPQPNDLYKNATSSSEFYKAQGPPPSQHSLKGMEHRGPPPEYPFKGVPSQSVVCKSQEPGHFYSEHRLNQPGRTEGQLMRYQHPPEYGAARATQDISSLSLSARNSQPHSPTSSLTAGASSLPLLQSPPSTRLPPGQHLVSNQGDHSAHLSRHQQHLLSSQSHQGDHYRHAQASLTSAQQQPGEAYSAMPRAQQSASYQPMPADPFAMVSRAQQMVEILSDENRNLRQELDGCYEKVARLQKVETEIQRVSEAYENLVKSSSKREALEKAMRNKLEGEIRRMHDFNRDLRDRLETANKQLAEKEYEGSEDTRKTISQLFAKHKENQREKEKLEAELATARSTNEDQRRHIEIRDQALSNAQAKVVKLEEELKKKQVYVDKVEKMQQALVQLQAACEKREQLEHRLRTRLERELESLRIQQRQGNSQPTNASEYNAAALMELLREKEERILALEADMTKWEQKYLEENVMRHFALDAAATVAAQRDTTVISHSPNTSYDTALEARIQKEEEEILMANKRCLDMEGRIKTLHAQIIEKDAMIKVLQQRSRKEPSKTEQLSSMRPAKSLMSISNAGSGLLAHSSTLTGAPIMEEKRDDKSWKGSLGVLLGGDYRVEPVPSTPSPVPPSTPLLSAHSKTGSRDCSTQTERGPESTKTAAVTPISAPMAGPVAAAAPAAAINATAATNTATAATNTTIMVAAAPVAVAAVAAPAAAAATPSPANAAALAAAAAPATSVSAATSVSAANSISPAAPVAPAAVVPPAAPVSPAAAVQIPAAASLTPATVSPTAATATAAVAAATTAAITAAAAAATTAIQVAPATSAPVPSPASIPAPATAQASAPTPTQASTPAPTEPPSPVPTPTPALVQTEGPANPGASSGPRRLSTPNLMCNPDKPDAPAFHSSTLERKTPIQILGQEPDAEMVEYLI

[2] = target: T2, HA-Amot-p130^S176A (mouse (by the paper's numbering: Ser176 in mouse, Ser175 in human)) (UniProt Q8VHG2); assay: as above
T2 sequence: T1 sequence with S176A

V5-tagged YAP (from UniProt P46937 1-504)
binding [1]: binds
binding [2]: binds
